{
  "sequences": {"note": "Amino acid sequences for entries named in this document (tags omitted). A change or cut given only in a name is not applied to a line headed by its entry.", "UniProt P28593": "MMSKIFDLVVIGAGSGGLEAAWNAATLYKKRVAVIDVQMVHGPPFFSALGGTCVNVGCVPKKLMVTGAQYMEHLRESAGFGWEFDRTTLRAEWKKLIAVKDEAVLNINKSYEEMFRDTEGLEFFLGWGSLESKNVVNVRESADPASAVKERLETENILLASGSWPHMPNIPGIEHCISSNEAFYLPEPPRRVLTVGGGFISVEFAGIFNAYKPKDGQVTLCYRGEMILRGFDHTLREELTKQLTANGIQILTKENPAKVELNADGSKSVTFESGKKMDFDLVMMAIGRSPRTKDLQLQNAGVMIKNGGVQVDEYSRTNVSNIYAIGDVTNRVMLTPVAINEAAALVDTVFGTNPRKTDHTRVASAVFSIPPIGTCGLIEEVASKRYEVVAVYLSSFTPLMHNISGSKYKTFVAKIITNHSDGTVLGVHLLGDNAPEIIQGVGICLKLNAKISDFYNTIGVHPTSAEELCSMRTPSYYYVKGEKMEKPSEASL"},
  "source": "paper PMC3491871",
  "about": "(The Journal of biological chemistry, 2004)",
  "biological_target": "trypanothione reductase (Trypanosoma cruzi, UniProt P28593)",
  "test": "biochemical",
  "data": [
    {"smiles": "CN(C)CCCN1c2ccccc2CCc2ccc(Cl)cc21", "note": "[clomipramine]", "values": [
      {"measurement": "Ki", "result": "3.5 ± 0.2", "unit": "µM"}
    ]}
  ]
}
